In PMC2651131:
Results are given in words; binding and its absence hold for the method and conditions named. In cells and extracts the contact can be indirect. Some results given as binding are weak or reduced against the parent protein; the word gives no strength. One block for each molecule: values may come before it.

Chains of the proteins cited; added tags and fusions are not shown. Residues count along the entry.
UniProt Q05030, residues 32-1097: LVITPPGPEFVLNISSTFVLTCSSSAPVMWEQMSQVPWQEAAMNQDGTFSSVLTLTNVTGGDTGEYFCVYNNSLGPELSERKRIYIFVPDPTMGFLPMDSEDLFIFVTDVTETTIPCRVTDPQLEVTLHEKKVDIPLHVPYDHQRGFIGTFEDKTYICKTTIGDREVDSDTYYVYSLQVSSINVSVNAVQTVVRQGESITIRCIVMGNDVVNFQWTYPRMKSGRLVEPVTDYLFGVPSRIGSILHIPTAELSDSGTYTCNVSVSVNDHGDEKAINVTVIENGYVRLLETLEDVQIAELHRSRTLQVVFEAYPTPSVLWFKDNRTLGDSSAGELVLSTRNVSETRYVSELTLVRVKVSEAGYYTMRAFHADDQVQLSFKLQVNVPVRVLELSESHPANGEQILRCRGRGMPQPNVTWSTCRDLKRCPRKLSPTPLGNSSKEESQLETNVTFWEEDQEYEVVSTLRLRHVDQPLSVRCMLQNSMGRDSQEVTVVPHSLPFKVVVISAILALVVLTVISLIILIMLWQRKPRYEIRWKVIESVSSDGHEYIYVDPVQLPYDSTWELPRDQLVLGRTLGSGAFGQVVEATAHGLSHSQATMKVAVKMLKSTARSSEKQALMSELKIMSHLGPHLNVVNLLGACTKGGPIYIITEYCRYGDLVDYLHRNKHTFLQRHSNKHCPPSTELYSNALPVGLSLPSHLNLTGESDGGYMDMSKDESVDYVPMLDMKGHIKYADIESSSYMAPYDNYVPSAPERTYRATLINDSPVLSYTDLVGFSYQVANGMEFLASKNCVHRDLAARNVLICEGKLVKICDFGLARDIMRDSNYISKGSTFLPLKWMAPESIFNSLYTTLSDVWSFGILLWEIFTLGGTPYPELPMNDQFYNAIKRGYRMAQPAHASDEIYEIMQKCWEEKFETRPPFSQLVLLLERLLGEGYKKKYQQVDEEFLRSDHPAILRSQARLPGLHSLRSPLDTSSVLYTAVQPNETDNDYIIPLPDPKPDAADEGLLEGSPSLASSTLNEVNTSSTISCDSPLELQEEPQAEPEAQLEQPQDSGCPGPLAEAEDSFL
UniProt E9PT20: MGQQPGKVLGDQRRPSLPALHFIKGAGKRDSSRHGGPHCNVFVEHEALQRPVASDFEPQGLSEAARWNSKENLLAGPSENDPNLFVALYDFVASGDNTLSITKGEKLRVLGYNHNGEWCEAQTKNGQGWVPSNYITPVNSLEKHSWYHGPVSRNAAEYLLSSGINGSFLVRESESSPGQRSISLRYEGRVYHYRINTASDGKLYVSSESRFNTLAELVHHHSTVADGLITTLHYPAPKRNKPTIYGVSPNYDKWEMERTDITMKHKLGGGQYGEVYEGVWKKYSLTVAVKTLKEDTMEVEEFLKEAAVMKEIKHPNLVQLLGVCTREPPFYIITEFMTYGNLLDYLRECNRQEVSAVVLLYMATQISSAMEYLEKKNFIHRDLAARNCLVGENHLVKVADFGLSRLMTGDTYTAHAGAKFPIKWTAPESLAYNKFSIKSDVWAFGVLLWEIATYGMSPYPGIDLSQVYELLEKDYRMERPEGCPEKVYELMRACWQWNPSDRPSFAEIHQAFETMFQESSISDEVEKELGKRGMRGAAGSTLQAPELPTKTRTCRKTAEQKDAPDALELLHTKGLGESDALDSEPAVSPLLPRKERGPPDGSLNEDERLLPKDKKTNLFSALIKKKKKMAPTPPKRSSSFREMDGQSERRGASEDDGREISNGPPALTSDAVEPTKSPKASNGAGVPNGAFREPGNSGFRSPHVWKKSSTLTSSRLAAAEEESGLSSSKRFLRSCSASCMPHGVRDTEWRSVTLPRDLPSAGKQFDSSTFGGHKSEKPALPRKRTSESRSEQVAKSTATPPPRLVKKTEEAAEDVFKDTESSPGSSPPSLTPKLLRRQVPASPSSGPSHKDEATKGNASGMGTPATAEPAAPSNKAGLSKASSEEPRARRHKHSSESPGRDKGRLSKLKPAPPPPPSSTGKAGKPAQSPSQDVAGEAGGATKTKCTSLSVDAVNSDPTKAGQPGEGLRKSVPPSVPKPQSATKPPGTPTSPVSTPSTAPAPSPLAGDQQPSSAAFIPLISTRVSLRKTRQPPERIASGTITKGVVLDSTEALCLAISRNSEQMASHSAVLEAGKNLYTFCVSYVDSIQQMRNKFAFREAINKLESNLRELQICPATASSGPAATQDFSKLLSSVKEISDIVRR

Key:
[1] = molecular target: PDGFβ receptor (rat (endogenous in CA1 hippocampal slices)) (UniProt Q05030); assay: co-IP; lysate of rat CA1 hippocampal slices (incubated 10 min without or with 10 ng/mL PDGF-BB), 1% NP-40 buffer; anti-PDGFβ receptor antibody precoupled to agarose beads; blot with anti-Abl
[2] = molecular target: Abelson tyrosine kinase (rat (endogenous in CA1 hippocampal slices)) (UniProt E9PT20); assay: co-IP; lysate of rat CA1 hippocampal slices (incubated 10 min with vehicle or 10 ng/mL PDGF-BB), 1% NP-40 buffer; anti-Abl antibody and protein A/G beads overnight at 4°C; blot with anti-PLCγ or anti-WAVE1

- binding [1]: binds
Molecule: Abelson tyrosine kinase (from UniProt E9PT20 1-1143) (enzyme)

- binding [2]: binds
B1: WAVE1 (protein, UniProt Q5BJU7 1-559)
chain: MPLVKRNIDPRHLCHTALPRGIKNELECVTNISLANIIRQLSSLSKYAEDIFGELFNEAHSFSFRVNSLQERVDRLSVSVTQLDPKEEELSLQDITMRKAFRSSTIQDQQLFDRKTLPIPLQETYDVCEQPPPLNVLTPYRDDGKEGLKFYTNPSYFFDLWKEKMLQDTEDKRKEKRKQKQKNLDRPHEPEKVPRAPHDRRREWQKLAQGPELAEDDADLLHKHIEVANGPASHFETRPQTYVDHMDGSYSLSALPFSQMSELLSRAEERVLVRPHEPPPPPPMHAAGDARPTPTCVSSAAGLIENRPQSPAAGRTPVFVSPTPPPPPPPLPSALSTSSLRASMTSTPPPPVPPPPPPPAPALQAPAVPPPPAPLQIAPGVLHPAPPPIAPPLVQPSPPVARAAPVCETVPVHPLPQGEVQGLPPPPPPPPLPPPGIRPSSPVTVAALAHPPSGLHPTPSPAPGPHAPLMPPSPPSQVLPASEPKRHPSTLPVISDARSVLLEAIRKGIQLRKVEEQREQEAKHERIENDVATILSRRIAVEYSDSEDDSEFDEVDWLE
